Experimental data reported in patent US9994813, “Role for the perlman syndrome exonuclease Dis3l2 in the Lin28-let-7 pathway” (Children's Medical Center Corporation).
Where a chain is given by its changes, count along the chain named. For part of these data: A weaker result is weaker than the reference pair of the same experiment. For part of these data: Protein sequences can lack the tags named with them. The exact form of at least one protein or probe is not confirmed. For part of these data: Negatives hold for the conditions tested. For part of these data: Results from cells or extracts need not show a direct contact.

Protein sequences, listed by entry. Tags and fused reporters are not part of them. Lines headed by an entry give the natural chain unless they say otherwise; changes in a name come on top.
UniProt Q9UPY3: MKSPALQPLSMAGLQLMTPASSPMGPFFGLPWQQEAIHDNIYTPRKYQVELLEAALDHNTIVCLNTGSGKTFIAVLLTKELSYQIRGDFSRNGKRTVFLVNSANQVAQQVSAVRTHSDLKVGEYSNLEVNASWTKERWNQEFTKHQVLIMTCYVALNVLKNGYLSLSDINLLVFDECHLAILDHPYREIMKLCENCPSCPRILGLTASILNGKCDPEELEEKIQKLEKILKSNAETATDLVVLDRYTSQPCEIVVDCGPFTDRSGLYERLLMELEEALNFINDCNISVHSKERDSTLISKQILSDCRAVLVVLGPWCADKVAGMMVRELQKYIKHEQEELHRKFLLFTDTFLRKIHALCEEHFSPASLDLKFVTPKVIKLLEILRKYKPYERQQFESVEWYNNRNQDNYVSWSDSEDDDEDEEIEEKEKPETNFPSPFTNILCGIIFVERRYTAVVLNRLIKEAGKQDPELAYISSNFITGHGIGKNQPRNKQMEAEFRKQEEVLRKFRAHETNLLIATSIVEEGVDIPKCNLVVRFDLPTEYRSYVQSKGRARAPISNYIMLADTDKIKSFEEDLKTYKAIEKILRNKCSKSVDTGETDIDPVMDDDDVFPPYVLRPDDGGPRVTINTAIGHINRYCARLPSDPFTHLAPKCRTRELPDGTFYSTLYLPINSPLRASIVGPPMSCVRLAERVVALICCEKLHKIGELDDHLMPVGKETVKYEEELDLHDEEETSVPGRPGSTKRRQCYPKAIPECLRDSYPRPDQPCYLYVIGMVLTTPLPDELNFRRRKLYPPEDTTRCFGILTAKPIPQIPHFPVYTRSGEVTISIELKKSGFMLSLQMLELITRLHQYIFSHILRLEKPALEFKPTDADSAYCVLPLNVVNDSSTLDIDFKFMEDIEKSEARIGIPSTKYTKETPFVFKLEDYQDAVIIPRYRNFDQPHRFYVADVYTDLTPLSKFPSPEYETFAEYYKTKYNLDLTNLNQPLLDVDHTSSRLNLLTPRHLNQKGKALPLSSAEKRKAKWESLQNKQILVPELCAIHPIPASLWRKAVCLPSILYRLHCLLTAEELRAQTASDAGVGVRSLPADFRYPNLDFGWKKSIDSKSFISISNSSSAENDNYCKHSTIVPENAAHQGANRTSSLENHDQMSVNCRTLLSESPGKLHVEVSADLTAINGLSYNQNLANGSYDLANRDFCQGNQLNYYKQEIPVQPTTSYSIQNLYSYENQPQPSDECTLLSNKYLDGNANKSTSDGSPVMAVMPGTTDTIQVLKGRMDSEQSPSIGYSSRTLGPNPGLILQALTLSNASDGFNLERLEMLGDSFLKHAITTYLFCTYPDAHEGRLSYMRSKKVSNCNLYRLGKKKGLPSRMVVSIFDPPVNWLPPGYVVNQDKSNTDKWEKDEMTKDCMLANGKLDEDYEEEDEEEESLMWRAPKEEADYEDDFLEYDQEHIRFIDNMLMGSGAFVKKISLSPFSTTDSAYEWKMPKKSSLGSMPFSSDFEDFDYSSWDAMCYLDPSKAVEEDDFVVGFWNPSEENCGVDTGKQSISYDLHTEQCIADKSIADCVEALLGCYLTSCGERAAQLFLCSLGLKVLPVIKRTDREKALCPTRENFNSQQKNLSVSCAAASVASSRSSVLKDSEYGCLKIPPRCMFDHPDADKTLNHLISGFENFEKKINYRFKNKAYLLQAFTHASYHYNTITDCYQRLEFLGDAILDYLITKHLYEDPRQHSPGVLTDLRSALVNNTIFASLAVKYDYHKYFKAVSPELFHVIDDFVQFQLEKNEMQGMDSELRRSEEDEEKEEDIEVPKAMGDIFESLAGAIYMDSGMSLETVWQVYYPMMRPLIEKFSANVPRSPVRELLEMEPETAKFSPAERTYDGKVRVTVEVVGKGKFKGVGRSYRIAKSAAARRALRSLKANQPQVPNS
UniProt B2RX14: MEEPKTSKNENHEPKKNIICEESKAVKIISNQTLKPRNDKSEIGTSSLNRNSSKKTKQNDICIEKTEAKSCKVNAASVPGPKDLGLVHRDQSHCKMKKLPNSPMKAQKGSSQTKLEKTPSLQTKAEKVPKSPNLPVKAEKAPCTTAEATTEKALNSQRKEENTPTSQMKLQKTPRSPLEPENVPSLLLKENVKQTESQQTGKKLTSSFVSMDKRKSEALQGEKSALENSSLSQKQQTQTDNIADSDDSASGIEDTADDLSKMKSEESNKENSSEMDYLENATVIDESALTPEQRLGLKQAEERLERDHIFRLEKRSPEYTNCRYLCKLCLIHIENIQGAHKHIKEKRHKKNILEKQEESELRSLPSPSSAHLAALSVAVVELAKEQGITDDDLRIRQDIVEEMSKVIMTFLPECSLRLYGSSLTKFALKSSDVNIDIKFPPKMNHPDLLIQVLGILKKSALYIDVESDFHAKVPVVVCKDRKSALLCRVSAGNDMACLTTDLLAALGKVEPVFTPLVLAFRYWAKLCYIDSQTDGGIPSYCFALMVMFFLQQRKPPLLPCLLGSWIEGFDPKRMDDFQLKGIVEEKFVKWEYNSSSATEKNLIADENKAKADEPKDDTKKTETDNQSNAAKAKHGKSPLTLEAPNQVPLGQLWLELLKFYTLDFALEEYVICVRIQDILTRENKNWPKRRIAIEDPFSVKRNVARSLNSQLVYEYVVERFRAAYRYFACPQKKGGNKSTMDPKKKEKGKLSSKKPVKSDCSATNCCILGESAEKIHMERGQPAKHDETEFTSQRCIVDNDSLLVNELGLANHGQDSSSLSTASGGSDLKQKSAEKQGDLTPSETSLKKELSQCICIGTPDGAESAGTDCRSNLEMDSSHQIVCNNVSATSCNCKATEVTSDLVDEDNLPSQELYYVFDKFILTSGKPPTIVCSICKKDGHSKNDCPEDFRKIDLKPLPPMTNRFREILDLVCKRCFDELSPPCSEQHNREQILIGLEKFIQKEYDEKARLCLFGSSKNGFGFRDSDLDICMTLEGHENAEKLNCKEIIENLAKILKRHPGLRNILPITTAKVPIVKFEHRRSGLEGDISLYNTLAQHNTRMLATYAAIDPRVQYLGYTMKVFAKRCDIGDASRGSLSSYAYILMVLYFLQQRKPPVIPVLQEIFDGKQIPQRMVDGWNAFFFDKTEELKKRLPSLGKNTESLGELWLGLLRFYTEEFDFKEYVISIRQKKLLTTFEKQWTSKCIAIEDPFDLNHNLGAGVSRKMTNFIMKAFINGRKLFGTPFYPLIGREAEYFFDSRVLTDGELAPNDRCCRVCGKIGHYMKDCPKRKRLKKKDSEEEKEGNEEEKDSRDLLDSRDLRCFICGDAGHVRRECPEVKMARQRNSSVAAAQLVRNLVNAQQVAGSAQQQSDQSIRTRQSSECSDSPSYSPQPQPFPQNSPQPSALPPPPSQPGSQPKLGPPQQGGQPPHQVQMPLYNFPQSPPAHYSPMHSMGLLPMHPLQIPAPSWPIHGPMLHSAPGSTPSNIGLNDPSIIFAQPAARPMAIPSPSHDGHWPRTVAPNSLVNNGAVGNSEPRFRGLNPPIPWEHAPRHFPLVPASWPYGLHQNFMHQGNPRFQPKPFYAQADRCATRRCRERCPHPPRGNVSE

Tests used:
[1] = molecular target: T1, Dis3l2 (Flag) (Mus musculus) (UniProt Q8CI75); experiment: enzyme reaction in vitro; conditions: 0.05 mM MgCl2, 37 C, purified recombinant protein, protein details: Flag, immunopurified from V6.5 ESC or 293T, label: 5'-32P
T1 sequence (looked up, limits assumed): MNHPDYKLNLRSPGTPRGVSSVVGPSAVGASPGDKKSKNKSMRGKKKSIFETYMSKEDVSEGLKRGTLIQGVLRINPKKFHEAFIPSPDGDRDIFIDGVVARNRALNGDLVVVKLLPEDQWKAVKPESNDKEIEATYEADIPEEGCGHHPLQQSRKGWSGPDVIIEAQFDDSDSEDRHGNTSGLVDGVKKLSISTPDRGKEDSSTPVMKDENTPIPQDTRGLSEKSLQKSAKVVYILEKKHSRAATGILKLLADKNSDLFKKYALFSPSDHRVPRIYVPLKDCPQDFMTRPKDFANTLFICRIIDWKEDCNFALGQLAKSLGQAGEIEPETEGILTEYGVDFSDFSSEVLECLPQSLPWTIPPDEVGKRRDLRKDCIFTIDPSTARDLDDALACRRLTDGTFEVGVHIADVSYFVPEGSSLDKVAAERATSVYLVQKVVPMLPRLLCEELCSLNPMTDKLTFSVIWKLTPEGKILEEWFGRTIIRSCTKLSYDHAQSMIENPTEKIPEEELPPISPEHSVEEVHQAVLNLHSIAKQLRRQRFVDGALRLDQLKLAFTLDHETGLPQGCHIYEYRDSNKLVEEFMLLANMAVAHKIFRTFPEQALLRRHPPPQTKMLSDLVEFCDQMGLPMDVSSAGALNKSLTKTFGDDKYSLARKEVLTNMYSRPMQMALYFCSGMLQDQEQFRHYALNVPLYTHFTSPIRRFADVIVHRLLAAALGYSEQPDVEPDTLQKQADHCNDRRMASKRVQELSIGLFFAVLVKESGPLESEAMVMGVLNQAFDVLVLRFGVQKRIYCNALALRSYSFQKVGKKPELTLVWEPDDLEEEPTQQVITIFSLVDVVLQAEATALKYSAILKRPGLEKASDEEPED

[2] = molecular target: T2, Dis3l2 (recombinant 6xHis) (Mus musculus) (UniProt Q8CI75); experiment: EMSA; conditions: legend says recombinant Dis3l2; methods state catalytically inert 6xHis Dis3l2 used; purified recombinant protein; protein details: 6xHis, pETDuet-1, E. coli; label: 5'-32P
T2 sequence (looked up, limits assumed): T1 sequence (looked up, limits assumed)

Lin28A = molecular target: T3, Lin28A (UniProt Q8K3Y3); experiment: EMSA; conditions: positive control, binds the loop; purified recombinant protein; protein details: 6xHis, E. coli; label: 5'-32P
T3 sequence (looked up, limits assumed): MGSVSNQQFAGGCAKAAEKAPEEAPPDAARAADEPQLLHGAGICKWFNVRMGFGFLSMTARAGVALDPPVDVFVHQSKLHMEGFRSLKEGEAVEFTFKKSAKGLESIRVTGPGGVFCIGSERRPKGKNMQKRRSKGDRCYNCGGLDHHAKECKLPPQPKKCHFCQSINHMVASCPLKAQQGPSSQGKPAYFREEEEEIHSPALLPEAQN

[3] = molecular target: T4, Dis3l2 D389N (Mus musculus) (UniProt Q8CI75); experiment: EMSA; conditions: selective for uridylated RNA; 1 nM RNA, 50 mM Tris pH 7.6, 100 mM NaCl; purified recombinant protein; protein details: 6xHis, E. coli; label: 5'-32P
T4 sequence (looked up, limits assumed): T1 sequence (looked up, limits assumed) with D389N

[4] = molecular target: T2, Dis3l2 (recombinant 6xHis) (Mus musculus); experiment: enzyme reaction in vitro; conditions: >10-fold more stable than +14U RNA; purified recombinant protein; protein details: 6xHis, pETDuet-1, E. coli; label: 5'-32P
Dicer = Dicer (UniProt Q9UPY3); experiment: enzyme reaction in vitro; conditions: 3.2 mM MgCl2, 37 C, purified recombinant protein, protein details: Flag, insect cells, label: 5'-32P
[5] = molecular target: Zcchc11 (endogenous) (Mus musculus) (UniProt B2RX14); experiment: pull-down; conditions: RNA-agarose extract, may be indirect via Lin28A, protein in an extract, protein details: P19 whole-cell extract, label: 5'-32P
[6] = molecular target: T5, Dis3l2 (endogenous) (Mus musculus) (UniProt Q8CI75); experiment: pull-down; conditions: RNA-agarose, mass spec and Western, protein in an extract, protein details: P19 whole-cell extract, label: 5'-32P
T5 sequence (looked up, limits assumed): T1 sequence (looked up, limits assumed)

[7] = molecular target: T6, Lin28A (endogenous) (Mus musculus) (UniProt Q8K3Y3); experiment: pull-down; conditions: RNA-agarose, protein in an extract, protein details: P19 whole-cell extract, label: 5'-32P
T6 sequence (looked up, limits assumed): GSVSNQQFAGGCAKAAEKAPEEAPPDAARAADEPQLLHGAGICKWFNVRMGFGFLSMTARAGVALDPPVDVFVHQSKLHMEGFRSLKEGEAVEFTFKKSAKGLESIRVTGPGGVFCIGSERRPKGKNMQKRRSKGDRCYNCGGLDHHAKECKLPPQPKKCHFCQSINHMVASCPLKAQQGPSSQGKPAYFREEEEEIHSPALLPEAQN

| Sequence | activity on this sequence [1] | binding result [2] | binding result (Lin28A) | binding result [3] | activity on this sequence [4] | activity on this sequence (Dicer; processed to ~22 nt duplexes) | binding result [5] | binding result [6] | binding result [7] | activity on this sequence ([1]; preferentially degraded, variant of mmu-pre-let-7a-1) | activity on this sequence (Dicer; poor substrate, variant of mmu-pre-let-7a-1) | binding result ([5]; variant of mmu-pre-let-7a-1) | binding result ([6]; variant of mmu-pre-let-7a-1) | binding result ([7]; variant of mmu-pre-let-7a-1) |
| --- | --- | --- | --- | --- | --- | --- | --- | --- | --- | --- | --- | --- | --- | --- |
| UAGCUUAUCAGACUGAUGUUGACUGUUGAAUCUCAUGGCAACAGCAGUCGAUGGGCUGUC [mmu-pre-miR-21] | less active | – | – | – | – | – | – | – | – | – | – | – | – | – |
| UGAGGUAGUAGGUUGUAUAGUUUUAGGGUCACACCCACCACUGGGAGAUAACUAUACAAUCUACUGUCUUUCC [mmu-pre-let-7a-1] | less active | no binding | binds | no binding | less active | active | binds | no binding | binds | – | – | – | – | – |
| UGAGGUAGUAGGUUGUAUAGUUUUAGGGUCACACCCACCACUGGGAGAUAACUAUACAAUCUACUGUCUUUCCUUUUUUUUUUUUUU [mmu-pre-let-7a-1+14U] | – | – | – | – | – | – | – | – | – | active | less active | binds | binds | binds |
